# These are yes or no findings as the source states them, for the method shown. For some of these results: Binding calls can cover weak binding; strength is not graded here.
# Protein sequences, listed by entry. Tags and fused reporters are not part of them. Lines headed by an entry give the natural chain unless they say otherwise; changes in a name come on top.
# UniProt Q7Z7L7: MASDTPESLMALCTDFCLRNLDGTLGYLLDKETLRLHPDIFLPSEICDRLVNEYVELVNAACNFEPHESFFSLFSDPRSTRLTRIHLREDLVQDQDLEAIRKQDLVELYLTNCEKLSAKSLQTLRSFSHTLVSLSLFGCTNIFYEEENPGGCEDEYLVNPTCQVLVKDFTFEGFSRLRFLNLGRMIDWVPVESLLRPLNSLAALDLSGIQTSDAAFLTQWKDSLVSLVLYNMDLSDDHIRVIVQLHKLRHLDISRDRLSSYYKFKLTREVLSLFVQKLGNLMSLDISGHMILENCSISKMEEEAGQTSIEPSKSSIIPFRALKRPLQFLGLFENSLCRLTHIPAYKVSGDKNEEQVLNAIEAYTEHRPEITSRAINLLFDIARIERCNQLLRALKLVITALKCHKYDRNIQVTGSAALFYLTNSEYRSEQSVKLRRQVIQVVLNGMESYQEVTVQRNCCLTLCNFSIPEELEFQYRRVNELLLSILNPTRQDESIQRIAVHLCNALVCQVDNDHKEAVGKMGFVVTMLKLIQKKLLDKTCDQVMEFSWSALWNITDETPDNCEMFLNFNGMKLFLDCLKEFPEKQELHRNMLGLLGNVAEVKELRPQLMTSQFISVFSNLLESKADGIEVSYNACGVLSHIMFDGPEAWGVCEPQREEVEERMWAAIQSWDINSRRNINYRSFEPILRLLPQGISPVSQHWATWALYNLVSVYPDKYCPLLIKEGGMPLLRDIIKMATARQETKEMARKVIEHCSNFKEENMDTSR
# UniProt Q9C0D3: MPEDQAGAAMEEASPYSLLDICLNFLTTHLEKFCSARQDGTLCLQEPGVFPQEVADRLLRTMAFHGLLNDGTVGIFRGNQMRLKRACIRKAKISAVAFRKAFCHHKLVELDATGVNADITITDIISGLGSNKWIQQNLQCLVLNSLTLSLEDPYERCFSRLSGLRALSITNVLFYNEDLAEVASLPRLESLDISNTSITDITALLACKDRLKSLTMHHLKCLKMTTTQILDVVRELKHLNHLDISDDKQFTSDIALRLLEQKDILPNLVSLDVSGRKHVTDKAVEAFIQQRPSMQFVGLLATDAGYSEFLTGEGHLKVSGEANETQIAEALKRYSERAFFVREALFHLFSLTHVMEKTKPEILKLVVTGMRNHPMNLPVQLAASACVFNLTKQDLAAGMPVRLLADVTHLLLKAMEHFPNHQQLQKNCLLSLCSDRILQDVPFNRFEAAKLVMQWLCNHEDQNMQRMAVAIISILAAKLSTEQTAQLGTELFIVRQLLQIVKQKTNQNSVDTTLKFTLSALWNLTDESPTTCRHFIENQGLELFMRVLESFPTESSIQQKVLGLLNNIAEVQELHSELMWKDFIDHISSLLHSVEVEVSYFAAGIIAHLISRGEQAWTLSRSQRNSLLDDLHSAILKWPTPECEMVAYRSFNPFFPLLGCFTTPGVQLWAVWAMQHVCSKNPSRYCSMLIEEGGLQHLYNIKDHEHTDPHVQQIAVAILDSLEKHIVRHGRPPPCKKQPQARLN
# How the values were obtained:
# [1] = molecular target: ZER1 (residues 469–766) W552A (human) (UniProt Q7Z7L7); assay: condition: peptide 0.5–1.5 mM titrated into 50–70 μM protein; ITC; peptide (0.5–1.5 mM) titrated into protein (50–70 μM) in the cell; 20 mM Tris-HCl pH 7.5, 150 mM NaCl; 16 °C; both purified
# [2] = molecular target: ZER1 (residues 469–766) N597A (human) (UniProt Q7Z7L7); assay: as above
# [3] = molecular target: ZER1 (residues 469–766) E600A (human) (UniProt Q7Z7L7); assay: as above
# [4] = molecular target: ZER1 (residues 469–766) D556A (human) (UniProt Q7Z7L7); assay: as above
# [5] = molecular target: ZER1 (residues 469–766) N553A (human) (UniProt Q7Z7L7); assay: ITC; peptide (0.5–1.5 mM) titrated into protein (50–70 μM) in the cell; 20 mM Tris-HCl pH 7.5, 150 mM NaCl; 16 °C; both purified
# [6] = molecular target: ZER1 (residues 469–766) (human) (UniProt Q7Z7L7); assay: condition: peptide 0.5–1.5 mM titrated into 50–70 μM protein; ITC; peptide (0.5–1.5 mM) titrated into protein (50–70 μM) in the cell; 20 mM Tris-HCl pH 7.5, 150 mM NaCl; 16 °C; both purified
# [7] = molecular target: ZYG11B (residues 490–728) (UniProt Q9C0D3); assay: as above
# [8] = molecular target: ZER1 (residues 469–766) (human) (UniProt Q7Z7L7); assay: ITC; peptide (0.5–1.5 mM) titrated into protein (50–70 μM) in the cell; 20 mM Tris-HCl pH 7.5, 150 mM NaCl; 16 °C; both purified
binding [6],binding [7],Binder,other results
–,–,AFLHVGQD [AFLHVGQD peptide],binding [1]: no binding; binding [2]: no binding; binding [3]: no binding; binding [4]: no binding; binding [5]: binds
–,–,CFLHVGQD [CFLHVGQD peptide],binding [1]: no binding; binding [2]: no binding; binding [3]: no binding; binding [4]: no binding; binding [5]: binds
no binding,no binding,DFLHVGQD [DFLHVGQD peptide],–
no binding,no binding,HFLHVGQD [HFLHVGQD peptide],–
no binding,no binding,FFLHVGQD [FFLHVGQD peptide],–
no binding,no binding,RFLHVGQD [RFLHVGQD peptide],–
no binding,no binding,NFLHVGQD [NFLHVGQD peptide],–
no binding,no binding,MFLHVGQD [MFLHVGQD peptide],–
no binding,no binding,YFLHVGQD [YFLHVGQD peptide],–
no binding,no binding,VFLHVGQD [VFLHVGQD peptide],–
–,–,SGRGKQGGKA [free H2A peptide (sequence: …)],binding [8]: binds
no binding,no binding,LFLHVGQD [LFLHVGQD peptide],–
no binding,no binding,WFLHVGQD [WFLHVGQD peptide],–
no binding,no binding,PFLHVGQD [PFLHVGQD peptide],–
–,no binding,TFLHVGQD [TFLHVGQD peptide],binding [1]: no binding; binding [2]: no binding; binding [3]: no binding; binding [4]: no binding; binding [5]: binds
no binding,no binding,EFLHVGQD [EFLHVGQD peptide],–
no binding,no binding,QFLHVGQD [QFLHVGQD peptide],–
–,–,SFLHVGQD [SFLHVGQD peptide],binding [1]: no binding; binding [2]: no binding; binding [3]: no binding; binding [4]: no binding; binding [5]: binds
no binding,no binding,KFLHVGQD [KFLHVGQD peptide],–
no binding,no binding,IFLHVGQD [IFLHVGQD peptide],–

# Reference: article PMC9741652, “CRL2^ZER1/ZYG11B recognizes small N-terminal residues for degradation” (Nature Communications, 2022)
